Measured values: article PMC7352958
These are yes or no findings as the source states them, for the method shown. In cells and extracts the contact can be indirect. Some entries that bind do so weakly or less than the wild type. Tags and fused reporters may be left off the sequences shown.

Protein sequences, listed by entry. Tags and fused reporters are not part of them.
UniProt Q15672: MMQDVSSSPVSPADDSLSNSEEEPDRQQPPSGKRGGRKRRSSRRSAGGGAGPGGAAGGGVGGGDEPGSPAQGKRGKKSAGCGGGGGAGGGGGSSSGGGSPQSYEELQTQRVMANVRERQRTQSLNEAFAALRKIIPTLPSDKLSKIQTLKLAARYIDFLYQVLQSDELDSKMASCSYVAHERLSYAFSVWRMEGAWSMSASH

Target: Twist1 (human (endogenous in HEK293T)) (UniProt Q15672)
Assay: co-IP; HEK293T cells transfected with Flag-USP4 plasmid for 36 h, treated with 20 uM MG132 for 6 h before co-IP; which protein was precipitated is not told

B1: Flag-USP4 (enzyme, UniProt Q13107 1-963)
chain: MAEGGGCRERPDAETQKSELGPLMRTTLQRGAQWYLIDSRWFKQWKKYVGFDSWDMYNVGEHNLFPGPIDNSGLFSDPESQTLKEHLIDELDYVLVPTEAWNKLLNWYGCVEGQQPIVRKVVEHGLFVKHCKVEVYLLELKLCENSDPTNVLSCHFSKADTIATIEKEMRKLFNIPAERETRLWNKYMSNTYEQLSKLDNTVQDAGLYQGQVLVIEPQNEDGTWPRQTLQSKSSTAPSRNFTTSPKSSASPYSSVSASLIANGDSTSTCGMHSSGVSRGGSGFSASYNCQEPPSSHIQPGLCGLGNLGNTCFMNSALQCLSNTAPLTDYFLKDEYEAEINRDNPLGMKGEIAEAYAELIKQMWSGRDAHVAPRMFKTQVGRFAPQFSGYQQQDSQELLAFLLDGLHEDLNRVKKKPYLELKDANGRPDAVVAKEAWENHRLRNDSVIVDTFHGLFKSTLVCPECAKVSVTFDPFCYLTLPLPLKKDRVMEVFLVPADPHCRPTQYRVTVPLMGAVSDLCEALSRLSGIAAENMVVADVYNHRFHKIFQMDEGLNHIMPRDDIFVYEVCSTSVDGSECVTLPVYFRERKSRPSSTSSASALYGQPLLLSVPKHKLTLESLYQAVCDRISRYVKQPLPDEFGSSPLEPGACNGSRNSCEGEDEEEMEHQEEGKEQLSETEGSGEDEPGNDPSETTQKKIKGQPCPKRLFTFSLVNSYGTADINSLAADGKLLKLNSRSTLAMDWDSETRRLYYDEQESEAYEKHVSMLQPQKKKKTTVALRDCIELFTTMETLGEHDPWYCPNCKKHQQATKKFDLWSLPKILVVHLKRFSYNRYWRDKLDTVVEFPIRGLNMSEFVCNLSARPYVYDLIAVSNHYGAMGVGHYTAYAKNKLNGKWYYFDDSNVSLASEDQIVTKAAYVLFYQRRDDEFYKTPSLSSSGSSDGGTRPSSSQQGFGDDEACSMDTN
- binding: binds
